Data taken from PMC4775043.
No constants are given. Whether binding was seen depends on the method and setting. Binding seen in cells or lysates may run through a third protein. Binding calls can cover weak binding; strength is not graded here. For some assays here: Tags and fused reporters may be left off the sequences shown.

Columns and labels:
GFP-MED19a (Arabidopsis) = target: T1, GFP-MED19a (Arabidopsis) (UniProt Q9FMP0); assay: co-IP; co-immunoprecipitation analysis between GFP-MED19a and MED6 and MED7, read by immunoblot
T1 sequence: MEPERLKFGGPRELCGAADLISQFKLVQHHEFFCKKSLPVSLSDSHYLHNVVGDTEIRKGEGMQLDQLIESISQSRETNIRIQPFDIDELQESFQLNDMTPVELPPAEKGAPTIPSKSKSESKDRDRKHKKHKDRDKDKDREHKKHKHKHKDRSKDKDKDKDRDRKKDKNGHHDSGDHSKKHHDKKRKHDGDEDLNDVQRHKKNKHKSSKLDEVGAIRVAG

[1] = target: T2, YFPn-MED19a (Arabidopsis) (UniProt Q9FMP0); assay: split reporter; BiFC with YFPc and YFPn fusions, transient expression in N. benthamiana, microscopy
T2 sequence: T1 sequence

Substance | binding (GFP-MED19a (Arabidopsis)) | binding [1]
MED7 | binds | 
YFPc-HaRxL44 (Hpa (downy mildew)) |  | binds
